Test results published in patent publication US8623996B2, “Cold active enzyme and method thereof” (University Putra Malaysia, priority 2010, dated 2014).
Some results were stated once for a whole list of compounds, not compound by compound.

Tested on: LipPI12 protease
Experiment: Effect of inhibitors on LipPI12 protease activity
Type: biochemical, Leucosporodium antarcticum PI12
Conditions: 1 mM inhibitor, 20° C., 30 min
Method: The final concentration of inhibitors was 1 mM. The LipPI12 lipase and protease were assayed with olive oil as substrate after incubation with inhibitors for 30 min.
Partial understanding of the enzyme catalysis involves the reaction with various inhibitors. […] Various inhibitors were tested at a final concentration of 1 mM (PMSF, EDTA and pepstatin). The purified enzyme was treated with various inhibitors at 20° C. for 30 min prior to measuring the residual activity colorimetrically.

`O=S(=O)(F)Cc1ccccc1` [PMSF, phenylmethylsulphonyl fluoride] showed a protease activity reduced of over 50%.
